The campaign covered roughly 270,000 compounds. About 5,800 (2.1%) were called active. These results got no clear call from the source, so the numbers are uncertain. Calls follow the shape of the dose curve; as a rule, active = well fitted inhibition curve with a large enough effect; inconclusive = small, poorly fitted or top-dose-only effect; inactive = flat fitted curve, though single readings scatter.
target: Microtubule-associated protein tau (Homo sapiens) (UniProt P10636); experiment: qHTS for Inhibitors of Tau Fibril Formation, Thioflavin T Binding; settings: recombinant tau K18 P301L (four-repeat tau fragment), heparin-induced fibrillization, ThT fluorescence; also: nearly all actives have a fitted effect of over 55% in size
Potency is read from the fitted curve at half-maximal effect.

Amino acid sequences for entries named in this document (tags omitted). Residues count along the entry.
UniProt P10636, 561-689 P618L limits assumed: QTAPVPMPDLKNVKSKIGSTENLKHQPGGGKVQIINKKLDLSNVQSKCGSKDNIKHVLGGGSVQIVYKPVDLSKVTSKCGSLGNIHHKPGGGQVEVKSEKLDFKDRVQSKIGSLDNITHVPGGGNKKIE

| Compound | Potency |
| --- | --- |
| Cc1nc2ccc3ccccc3c2s1.O=[N+]([O-])c1cc([N+](=O)[O-])c(O)c([N+](=O)[O-])c1 | inconclusive: 28.2 µM |
| O=[N+]([O-])c1cc([N+](=O)[O-])c(Nc2nnnn2CCO)c([N+](=O)[O-])c1 | inconclusive: 17.8 µM |
| CC1=NCCc2c1[nH]c1ccccc21.O=[N+]([O-])c1cc([N+](=O)[O-])c(O)c([N+](=O)[O-])c1 | inconclusive: 25.1 µM |
| COc1ccccc1OP(C)(=O)Nc1cccc(Br)c1 (centres undefined) | inconclusive: 3.98 µM |
| O=[N+]([O-])c1ccc2c(c1)C=Nc1ccccc1O2 | inconclusive: 14.1 µM |
| Cc1nc2ccc3ccccc3c2o1.O=[N+]([O-])c1cc([N+](=O)[O-])c(O)c([N+](=O)[O-])c1 | inconclusive: 22.4 µM |
| O=[N+]([O-])c1cc([N+](=O)[O-])c(Nc2ccccn2)c([N+](=O)[O-])c1 | inconclusive: 20 µM |
| Cc1cc(-c2cccc3ccccc23)c(C)cn1.O=[N+]([O-])c1cc([N+](=O)[O-])c(O)c([N+](=O)[O-])c1 | inconclusive: 35.5 µM |
| CCN(CCCl)Cc1ccccc1C | inconclusive: 39.8 µM |

Reference: PubChem BioAssay AID1460 (National Center for Advancing Translational Sciences (NCATS), 2008)
